{"source": "patent US20250228875A1", "about": "“METHODS OF TREATING, AMELIORATING AND/OR PREVENTING FIBRODYSPLASIA OSSIFICANS PROGRESSIVA AND HETEROTOPIC OSSIFICATION, AND KITS FOR THE SAME” (The Trustees of the University of Pennsylvania, priority 2022, published 2025)", "key": {"[1]": {"system": "Acvr1^R206H/+;CreERT2^−/+ FOP mice", "assay": "Cardiotoxin soft tissue injury induced heterotopic ossification (HO), bone volume by MicroCT, in Acvr1^R206H/+;CreERT2^−/+ FOP mice", "assay_type": "in vivo", "conditions": "minocycline 100 mg/kg intraperitoneally daily, 3 days prior to and 14 days after induction of HO; vs control mice; FIGS. 6E-6F, **p<0.01, n=6"}, "Acvr1^Q207D/+ mice": {"system": "Acvr1^Q207D/+ mice", "assay": "AV-Cre/cardiotoxin soft tissue injury induced heterotopic ossification (HO), bone volume by MicroCT, in Acvr1^Q207D/+ mice", "assay_type": "in vivo"}}, "note": "Entries after “also recorded” stand apart in the source; their conditions may differ. At least one compound was matched to its structure with a doubt left."}
{"compound": "CN(C)c1ccc(O)c2c1C[C@H]1C[C@H]3[C@H](N(C)C)C(O)=C(C(N)=O)C(=O)[C@@]3(O)C(O)=C1C2=O", "note": "[minocycline]", "values": [{"measurement": "heterotopic ossification (HO) following soft tissue injury, HO bone volume by MicroCT", "setting": "[1]", "result": "almost fully eliminated; also recorded: significantly less HO"}, {"measurement": "effect of minocycline at different concentrations on HO", "setting": "Acvr1^Q207D/+ mice; dose of 5 to 100 mg/kg, Acvr1^Q207D/+ mice, FIG. 6J", "result": "effective in decreasing HO"}, {"measurement": "heterotopic ossification (HO) following soft tissue injury, HO bone volume by MicroCT", "setting": "Acvr1^Q207D/+ mice; minocycline treated vs untreated Acvr1^Q207D/+ mice, FIGS. 6G-6H, ***p<0.001, n=6", "result": "significantly reduced; also recorded: significantly less HO"}]}
